# Experimental data: paper PMC8967061
# Chains of the proteins cited; added tags and fusions are not shown. Residues count along the entry.
# UniProt P08603, residues 19-1231: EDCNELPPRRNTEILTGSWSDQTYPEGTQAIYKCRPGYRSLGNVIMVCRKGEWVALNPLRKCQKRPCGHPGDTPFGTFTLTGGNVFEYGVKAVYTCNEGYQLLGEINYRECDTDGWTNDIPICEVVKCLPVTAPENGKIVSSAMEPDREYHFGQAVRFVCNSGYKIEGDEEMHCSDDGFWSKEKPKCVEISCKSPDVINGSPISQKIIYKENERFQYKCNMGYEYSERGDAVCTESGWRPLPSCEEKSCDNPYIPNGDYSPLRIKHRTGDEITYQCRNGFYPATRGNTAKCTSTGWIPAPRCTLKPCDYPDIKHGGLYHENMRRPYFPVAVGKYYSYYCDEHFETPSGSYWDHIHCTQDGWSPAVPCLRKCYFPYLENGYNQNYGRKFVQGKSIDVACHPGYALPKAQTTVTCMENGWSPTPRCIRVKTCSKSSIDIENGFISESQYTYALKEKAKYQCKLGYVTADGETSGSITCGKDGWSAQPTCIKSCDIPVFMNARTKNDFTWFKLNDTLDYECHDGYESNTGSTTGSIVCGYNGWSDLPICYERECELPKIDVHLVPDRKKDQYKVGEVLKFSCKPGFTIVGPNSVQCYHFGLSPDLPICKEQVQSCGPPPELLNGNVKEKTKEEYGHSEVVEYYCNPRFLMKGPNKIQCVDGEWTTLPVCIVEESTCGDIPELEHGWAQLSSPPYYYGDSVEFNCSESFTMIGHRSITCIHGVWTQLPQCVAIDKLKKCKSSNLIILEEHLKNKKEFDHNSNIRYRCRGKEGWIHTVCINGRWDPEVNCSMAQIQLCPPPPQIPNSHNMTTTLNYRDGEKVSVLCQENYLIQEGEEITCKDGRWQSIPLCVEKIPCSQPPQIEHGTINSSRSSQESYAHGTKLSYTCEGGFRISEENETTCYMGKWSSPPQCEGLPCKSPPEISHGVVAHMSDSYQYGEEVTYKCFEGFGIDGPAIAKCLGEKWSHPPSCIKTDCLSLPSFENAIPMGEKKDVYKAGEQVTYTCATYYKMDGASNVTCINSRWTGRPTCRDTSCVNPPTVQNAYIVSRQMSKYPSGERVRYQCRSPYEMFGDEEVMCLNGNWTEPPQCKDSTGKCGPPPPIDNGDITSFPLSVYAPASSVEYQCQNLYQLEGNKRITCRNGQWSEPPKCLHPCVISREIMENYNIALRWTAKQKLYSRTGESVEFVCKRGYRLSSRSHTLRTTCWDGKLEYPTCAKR
# Results are given in words; binding and its absence hold for the method and conditions named.
# Molecular target: Factor H, full length (human) (UniProt P08603)
# Assay: MST; full-length FH labelled with RED-tris-NTA dye, FhbA proteins titrated, PBS/0.025% Tween-20, 22 C; both purified
substance,measurement,value
BhFhbA Phe154Ala (from UniProt W5SB08 44-202) (domain or fragment),binding,no binding
